Experimental data from paper doi:10.1101/2021.07.15.452481.
These are yes or no findings as the source states them, for the method shown.

Target: Thermotoga maritima YidC (Thermotoga maritima) (UniProt Q9X1H2)
Test: SEC

B1: Thermotoga maritima YidC (protein, UniProt Q9X1H2 1-445)
chain: MVLRKVVAILLAILPIFLFAVEPIKVVRSEKEIVVLTRFEEYHFDLEKGILKDFYTLVDGRKHVFTYGNDGFDVLDEGTPLTVIEEPIVTGVGKVSEGFSDEVSIVYNYGYVKKIFTIKNNENYTFFVDIESSKPVDVTVPRVSVDTSTDRYLENYFASFNPKTRTLVLLKHDEGLLFEGTLKVNGQKRFIVFMGPNKRTLIKKAFPEDYDVLIKALVNIPGFNKWYDSVFYGLVWFFWWLKDLTKNFGWAIMLFTLIVRLILYPLYHAQTKSLINMRKLQPQIEAIKKKYKDPTKQQEALLKLYREAGVNPASGCLMLLIQLPIFMLLWSVIRYYVEEFAYSGSFLIWKDLSAGGFSNNWLFLVITIVASYYTTLLTSQDARTAWQGIIMSVIFPFLFVGLPSGLFLYYATNTLIQLAVTYYTYKRYKIKGLTTRELLGLPKKA
binding: no binding
